Measurements reported in PubChem BioAssay AID1259405 (NCATS, 2018).
The deposit covers about 50,000 reagents; this is an unselected part. Over the whole deposit, about 4,000 (8%) were called active. 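Mouse siRNA library applied to hamster cells; one well for each siRNA.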

Aim: 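Silenced genes that increase secreted GFP made by CHO cells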 (primary screen)
Cell system: Chinese hamster CHO-K1 ovary cells with stable secreted eGFP expression
Reagents: single siRNA against mouse genes, 0.8 pmol siRNA per well (2 µl of 400 nM stock)
Timing: 3 days
Measurement: 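Per-well intracellular GFP measured by laser scanning cytometry, plus viability from ATP luminescence, each relative to plate median of non-targeting control wells, in %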
Direction: GFP, % of control: higher = more GFP per well, higher productivity; viability (ATP), % of control: higher = more viable cells (more ATP)
Call rule: 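Called active when intracellular GFP, relative to negative control, is at or above 120%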

Gene	PubChem SID	GFP, % of control	viability (ATP), % of control	call
Tmem45a2	SID363543501	56.8	71.2	inactive
Tmem45a2	SID363552994	58.4	44.3	inactive
Tmem45a2	SID363558842	64.8	71.5	inactive
Agr2	SID363542718	77	64.7	inactive
Agr2	SID363546235	103	72.4	inactive
Agr2	SID363547991	62.2	83.5	inactive
Arhgap1	SID363569017	150	134	active
Arhgap1	SID363583449	139	54.4	active
Btbd7	SID363546857	33.9	48.5	inactive
Btbd7	SID363549669	83.3	68.6	inactive
Btbd7	SID363587723	152	102	active
Tmprss2	SID363574536	111	112	inactive
Tmprss2	SID363575592	77	101	inactive
Tmprss2	SID363580168	71.9	78.3	inactive
Pcdh1	SID363541752	75.7	69.7	inactive
Pcdh1	SID363553344	62.4	62.7	inactive
Pcdh1	SID363566668	51.7	41.7	inactive
Ivl	SID363553870	69	55.1	inactive
Ivl	SID363561827	119	85.9	inactive
Ivl	SID363565565	61.5	58.6	inactive
Socs5	SID363582540	98.1	136	inactive
Socs5	SID363584300	86.3	88.6	inactive
Aqp7	SID363574751	44.5	43.8	inactive
Aqp7	SID363575807	43.3	61.8	inactive
Aqp7	SID363580383	144	99.1	active
Pam	SID363572940	68.1	85.2	inactive
Pam	SID363577516	105	79	inactive
Pam	SID363581036	85.7	83.7	inactive
Pask	SID363570818	63.3	61.4	inactive
Asb1	SID363546585	118	44.9	inactive
Asb1	SID363548341	69.6	79.3	inactive
Asb1	SID363560519	129	118	active
Rxfp3	SID363571167	130	104	active
Rxfp3	SID363571519	72.6	80.1	inactive
Rxfp3	SID363571871	72.9	67.5	inactive
Igfbp6	SID363540332	52.6	59.7	inactive
Igfbp6	SID363542084	64.1	60.8	inactive
Igfbp6	SID363567000	108	83.3	inactive
Kif22	SID363572190	59.7	72.3	inactive
Kif22	SID363573950	75.8	59.1	inactive
Utp14a	SID363556597	66.7	36.4	inactive
Utp14a	SID363563501	37.5	26.8	inactive
Utp14a	SID363587047	67.5	95.8	inactive
Cobl	SID363550239	81.9	82.8	inactive
Cobl	SID363564748	65.9	83.5	inactive
Cobl	SID363588293	59.2	90.7	inactive
Fggy	SID363547263	110	99.5	inactive
Fggy	SID363558032	37.7	35.7	inactive
Fggy	SID363559790	67.1	70	inactive
Gfi1b	SID363573295	115	69	inactive
Gfi1b	SID363588534	95.2	60.4	inactive
Zc3h3	SID363556880	53.6	33.7	inactive
Zc3h3	SID363563784	57.5	63.7	inactive
Zc3h3	SID363587330	0.357	127	inactive
Pnp	SID363545237	69.2	75	inactive
Pnp	SID363548750	76.7	68.5	inactive
Pnp	SID363562556	51	62.7	inactive
Fstl4	SID363553889	83	71	inactive
Fstl4	SID363561846	84	67.2	inactive
Fstl4	SID363565584	72.5	61.2	inactive
Myo1c	SID363572169	70.8	105	inactive
Myo1c	SID363573929	24.7	20.3	inactive
Rnf114	SID363573597	112	101	inactive
Rnf114	SID363581341	34.8	33.8	inactive
Rnf114	SID363583805	93.5	78.4	inactive

15 consecutive reagents from above:
Gene	PubChem SID	GFP, % of control	viability (ATP), % of control	call
Fggy	SID363558032	37.7	35.7	inactive
Fggy	SID363559790	67.1	70	inactive
Gfi1b	SID363573295	115	69	inactive
Gfi1b	SID363588534	95.2	60.4	inactive
Zc3h3	SID363556880	53.6	33.7	inactive
Zc3h3	SID363563784	57.5	63.7	inactive
Zc3h3	SID363587330	0.357	127	inactive
Pnp	SID363545237	69.2	75	inactive
Pnp	SID363548750	76.7	68.5	inactive
Pnp	SID363562556	51	62.7	inactive
Fstl4	SID363553889	83	71	inactive
Fstl4	SID363561846	84	67.2	inactive
Fstl4	SID363565584	72.5	61.2	inactive
Myo1c	SID363572169	70.8	105	inactive
Myo1c	SID363573929	24.7	20.3	inactive

Continued.
Gene	PubChem SID	GFP, % of control	viability (ATP), % of control	call
Zyx	SID363555440	35.5	17.7	inactive
Zyx	SID363564101	61.8	56.5	inactive
Zyx	SID363587647	94.7	91.2	inactive
Arhgap24	SID363546840	49.3	39.9	inactive
Arhgap24	SID363548596	73.1	84.1	inactive
Arhgap24	SID363560774	72.8	48	inactive
Zdhhc23	SID363539986	109	102	inactive
Zdhhc23	SID363561287	80.4	59.2	inactive
Zdhhc23	SID363564323	92.8	84.4	inactive
Aff4	SID363541067	160	107	active
Aff4	SID363555694	69.8	78.3	inactive
Aff4	SID363565983	78	80.8	inactive
Lage3	SID363540676	82.6	90.2	inactive
Lage3	SID363543127	38.8	44.6	inactive
Lage3	SID363552620	152	107	active
Pik3c3	SID363570887	89.1	73.2	inactive
Ifitm3	SID363540250	66.7	75.5	inactive
Ifitm3	SID363542002	56.7	48.8	inactive
Ifitm3	SID363566918	68.2	86.7	inactive
Atp6ap2	SID363546719	31	16.1	inactive
Atp6ap2	SID363548475	113	124	inactive
Atp6ap2	SID363560653	83.6	89.6	inactive
Fam163b	SID363550046	116	95.9	inactive
Fam163b	SID363564555	63.3	64.8	inactive
Fam163b	SID363588100	84.4	107	inactive
Brd3	SID363569389	49.3	69.5	inactive
Brd3	SID363577133	95.7	84.3	inactive
Brd3	SID363578541	53.5	61.9	inactive
Tmem139	SID363542842	48	54.1	inactive
Tmem139	SID363546359	149	97.2	active
Tmem139	SID363548115	50.3	65.4	inactive
Clec2e	SID363544137	48.7	44.4	inactive
Clec2e	SID363550465	70.3	86.6	inactive
Clec2e	SID363557014	79.4	101	inactive
Actr3	SID363572168	99.2	92	inactive
Actr3	SID363573928	69.7	54.1	inactive
Sfxn4	SID363545730	77.4	88.2	inactive
Sfxn4	SID363549243	42.6	64.5	inactive
Sfxn4	SID363563049	60.2	54.9	inactive
Slc38a4	SID363555055	77.9	81.7	inactive
Slc38a4	SID363568502	56.4	52	inactive
Slc38a4	SID363586561	81.7	93.1	inactive
